# The other results are listed elsewhere or left out.
# Key:
# Assay in all cases: glycan array binding signal (z-score within array); higher = stronger binding
# Settings in all cases: glycan notation: IUPAC condensed, linker removed
# [1] = molecular target: Neu5Ac(a2-3)Gal(b1-4)GlcNAc(b1-6)[Gal(b1-3)]GalNAc
# Method in brief: (§1)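 Glycan array data came from 3228 arrays in the Consortium for Functional Glycomics database, and only arrays with an available protein sequence were kept. Glycan names were put into IUPAC-condensed notation, and columns mapping to the same glycan were averaged. The binding signal is a within-array Z-score, averaged across arrays of one protein sequence run at different concentrations or buffers and across linkers. A negative Z-score can be read as non-binding.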
# [2] = molecular target: Neu5Ac(a2-3)Gal(b1-4)GlcNAc(b1-6)[Neu5Ac(a2-3)Gal(b1-3)]GalNAc
# Method in brief: as §1
# [3] = molecular target: Neu5Ac(a2-3)Gal(b1-4)GlcNAc6S
# Method in brief: as §1
# [4] = molecular target: Neu5Ac(a2-3)Gal(b1-4)[Fuc(a1-3)]GlcNAc
# Method in brief: as §1
# [5] = molecular target: Neu5Ac(a2-3)Gal(b1-4)[Fuc(a1-3)]GlcNAc(b1-2)Man
# Method in brief: as §1
# [6] = molecular target: Neu5Ac(a2-3)Gal(b1-4)[Fuc(a1-3)]GlcNAc(b1-3)Gal
# Method in brief: as §1
# [7] = molecular target: Neu5Ac(a2-3)Gal(b1-4)[Fuc(a1-3)]GlcNAc(b1-3)Gal(b1-4)GlcNAc
# Method in brief: as §1
# [8] = molecular target: Neu5Ac(a2-3)Gal(b1-4)[Fuc(a1-3)]GlcNAc(b1-3)Gal(b1-4)[Fuc(a1-3)]GlcNAc(b1-3)Gal(b1-4)[Fuc(a1-3)]GlcNAc
# Method in brief: as §1
# [9] = molecular target: Neu5Ac(a2-3)Gal(b1-4)[Fuc(a1-3)]GlcNAc(b1-3)GalNAc
# Method in brief: as §1
# [10] = molecular target: Neu5Ac(a2-3)Gal(b1-4)[Fuc(a1-3)]GlcNAc(b1-6)[Gal(b1-3)]GalNAc
# Method in brief: as §1
# [11] = molecular target: Neu5Ac(a2-3)Gal(b1-4)[Fuc(a1-3)]GlcNAc(b1-6)[Neu5Ac(a2-3)Gal(b1-3)]GalNAc
# Method in brief: as §1
# [12] = molecular target: Neu5Ac(a2-3)Gal(b1-4)[Fuc(a1-3)]GlcNAc6S
# Method in brief: as §1
# [13] = molecular target: Neu5Ac(a2-3)Gal6S(b1-4)GlcNAc
# Method in brief: as §1
# [14] = molecular target: Neu5Ac(a2-3)Gal6S(b1-4)[Fuc(a1-3)]GlcNAc
# Method in brief: as §1
# [15] = molecular target: Neu5Ac(a2-3)GalNAc
# Method in brief: as §1
# [16] = molecular target: Neu5Ac(a2-3)GalNAc(b1-4)GlcNAc
# Method in brief: as §1
# [17] = molecular target: Neu5Ac(a2-3)[GalNAc(b1-4)]Gal(b1-4)Glc
# Method in brief: as §1
# [18] = molecular target: Neu5Ac(a2-3)[GalNAc(b1-4)]Gal(b1-4)GlcNAc
# Method in brief: as §1
# [19] = molecular target: Neu5Ac(a2-3)[GalNAc(b1-4)]Gal(b1-4)GlcNAc(b1-3)GalNAc
# Method in brief: as §1
# [20] = molecular target: Neu5Ac(a2-3)[Neu5Ac(a2-6)]GalNAc
# Method in brief: as §1
# [21] = molecular target: Neu5Ac(a2-6)Gal
# Method in brief: as §1
# [22] = molecular target: Neu5Ac(a2-6)Gal(b1-3)GlcNAc(b1-3)[Gal(b1-4)GlcNAc(b1-6)]Gal(b1-4)Glc
# Method in brief: as §1
# [23] = molecular target: Neu5Ac(a2-6)Gal(b1-4)Glc
# Method in brief: as §1
# [24] = molecular target: Neu5Ac(a2-6)Gal(b1-4)GlcNAc
# Method in brief: as §1
# [25] = molecular target: Neu5Ac(a2-6)Gal(b1-4)GlcNAc(b1-2)Man
# Method in brief: as §1
# [26] = molecular target: Neu5Ac(a2-6)Gal(b1-4)GlcNAc(b1-2)Man(a1-3)Man(b1-4)GlcNAc(b1-4)GlcNAc
# Method in brief: as §1
# [27] = molecular target: Neu5Ac(a2-6)Gal(b1-4)GlcNAc(b1-2)Man(a1-3)[Gal(b1-4)GlcNAc(b1-2)Man(a1-6)]Man(b1-4)GlcNAc(b1-4)GlcNAc
# Method in brief: as §1
# [28] = molecular target: Neu5Ac(a2-6)Gal(b1-4)GlcNAc(b1-2)Man(a1-3)[GlcNAc(b1-2)Man(a1-6)]Man(b1-4)GlcNAc(b1-4)GlcNAc
# Method in brief: as §1
# [29] = molecular target: Neu5Ac(a2-6)Gal(b1-4)GlcNAc(b1-2)Man(a1-3)[GlcNAc(b1-4)][Neu5Ac(a2-6)Gal(b1-4)GlcNAc(b1-2)Man(a1-6)]Man(b1-4)GlcNAc(b1-4)GlcNAc
# Method in brief: as §1
# [30] = molecular target: Neu5Ac(a2-6)Gal(b1-4)GlcNAc(b1-2)Man(a1-3)[Man(a1-6)]Man(b1-4)GlcNAc(b1-4)GlcNAc
# Method in brief: as §1
# [31] = molecular target: Neu5Ac(a2-6)Gal(b1-4)GlcNAc(b1-2)Man(a1-3)[Neu5Ac(a2-3)Gal(b1-4)GlcNAc(b1-2)Man(a1-6)]Man(b1-4)GlcNAc(b1-4)GlcNAc
# Method in brief: as §1
# [32] = molecular target: Neu5Ac(a2-6)Gal(b1-4)GlcNAc(b1-2)Man(a1-3)[Neu5Ac(a2-6)Gal(b1-4)GlcNAc(b1-2)Man(a1-6)]Man(b1-4)GlcNAc(b1-4)GlcNAc
# Method in brief: as §1
# [33] = molecular target: Neu5Ac(a2-6)Gal(b1-4)GlcNAc(b1-2)Man(a1-3)[Neu5Ac(a2-6)Gal(b1-4)GlcNAc(b1-2)Man(a1-6)]Man(b1-4)GlcNAc(b1-4)[Fuc(a1-6)]GlcNAc
# Method in brief: as §1
# [34] = molecular target: Neu5Ac(a2-6)Gal(b1-4)GlcNAc(b1-2)Man(a1-6)Man(b1-4)GlcNAc(b1-4)GlcNAc
# Method in brief: as §1
# [35] = molecular target: Neu5Ac(a2-6)Gal(b1-4)GlcNAc(b1-2)Man(a1-6)[Gal(b1-4)GlcNAc(b1-2)Man(a1-3)]Man(b1-4)GlcNAc(b1-4)GlcNAc
# Method in brief: as §1
# [36] = molecular target: Neu5Ac(a2-6)Gal(b1-4)GlcNAc(b1-2)Man(a1-6)[GlcNAc(b1-2)Man(a1-3)]Man(b1-4)GlcNAc(b1-4)GlcNAc
# Method in brief: as §1
# [37] = molecular target: Neu5Ac(a2-6)Gal(b1-4)GlcNAc(b1-2)Man(a1-6)[Man(a1-3)]Man(b1-4)GlcNAc(b1-4)GlcNAc
# Method in brief: as §1
# [38] = molecular target: Neu5Ac(a2-6)Gal(b1-4)GlcNAc(b1-2)[Neu5Ac(a2-6)Gal(b1-4)GlcNAc(b1-4)]Man(a1-3)[GlcNAc(b1-4)][Neu5Ac(a2-6)Gal(b1-4)GlcNAc(b1-2)[Neu5Ac(a2-6)Gal(b1-4)GlcNAc(b1-6)]Man(a1-6)]Man(b1-4)GlcNAc(b1-4)GlcNAc
# Method in brief: as §1
# [39] = molecular target: Neu5Ac(a2-6)Gal(b1-4)GlcNAc(b1-2)[Neu5Ac(a2-6)Gal(b1-4)GlcNAc(b1-4)]Man(a1-3)[GlcNAc(b1-4)][Neu5Ac(a2-6)Gal(b1-4)GlcNAc(b1-4)Man(a1-6)]Man(b1-4)GlcNAc(b1-4)GlcNAc
# Method in brief: as §1
# [40] = molecular target: Neu5Ac(a2-6)Gal(b1-4)GlcNAc(b1-2)[Neu5Ac(a2-6)Gal(b1-4)GlcNAc(b1-6)]Man(a1-6)[Neu5Ac(a2-6)Gal(b1-4)GlcNAc(b1-2)Man(a1-3)][GlcNAc(b1-4)]Man(b1-4)GlcNAc(b1-4)GlcNAc
# Method in brief: as §1
# [41] = molecular target: Neu5Ac(a2-6)Gal(b1-4)GlcNAc(b1-3)Gal(b1-3)GlcNAc
# Method in brief: as §1
# [42] = molecular target: Neu5Ac(a2-6)Gal(b1-4)GlcNAc(b1-3)Gal(b1-4)GlcNAc
# Method in brief: as §1
# [43] = molecular target: Neu5Ac(a2-6)Gal(b1-4)GlcNAc(b1-3)Gal(b1-4)GlcNAc(b1-2)Man(a1-3)[Neu5Ac(a2-6)Gal(b1-4)GlcNAc(b1-3)Gal(b1-4)GlcNAc(b1-2)Man(a1-6)]GalNAc
# Method in brief: as §1
# [44] = molecular target: Neu5Ac(a2-6)Gal(b1-4)GlcNAc(b1-3)Gal(b1-4)GlcNAc(b1-3)Gal(b1-4)GlcNAc
# Method in brief: as §1
# [45] = molecular target: Neu5Ac(a2-6)Gal(b1-4)GlcNAc(b1-3)Gal(b1-4)GlcNAc(b1-3)Gal(b1-4)GlcNAc(b1-2)Man(a1-3)[Neu5Ac(a2-6)Gal(b1-4)GlcNAc(b1-3)Gal(b1-4)GlcNAc(b1-3)Gal(b1-4)GlcNAc(b1-2)Man(a1-6)]GalNAc
# Method in brief: as §1
binder,measurement,setting,value
HFR-3 (Triticum aestivum) (protein) MKGLLLCALALAFAAVTTHAQLQSCPTRCGKQADGMECPNNLCCSKDGYCGLGVDYCSAGAGCQSGACYDNKICGAQANGTLCRNNHCCSSGGRCGYGREYCSNGCQGGPCWADLKCGHLDNGKLCPNNLCCSQYGYCGLGPEFCGTGCQNGACSTDKPCGNKANGAPCTNNYCCSQYGSCGLGKDYCGTGCQNGACN,glycan array binding signal (z-score),[1],-0.478
same,glycan array binding signal (z-score),[2],0.231
same,glycan array binding signal (z-score),[3],-0.02
same,glycan array binding signal (z-score),[4],-0.56
same,glycan array binding signal (z-score),[5],-1.25
same,glycan array binding signal (z-score),[6],-1.15
same,glycan array binding signal (z-score),[7],-0.632
same,glycan array binding signal (z-score),[8],1.21
same,glycan array binding signal (z-score),[9],-0.052
same,glycan array binding signal (z-score),[10],0.714
same,glycan array binding signal (z-score),[11],0.498
same,glycan array binding signal (z-score),[12],1.16
same,glycan array binding signal (z-score),[13],-0.958
same,glycan array binding signal (z-score),[14],0.62
same,glycan array binding signal (z-score),[15],-1.48
same,glycan array binding signal (z-score),[16],1.18
same,glycan array binding signal (z-score),[17],-0.34
same,glycan array binding signal (z-score),[18],-0.488
same,glycan array binding signal (z-score),[19],-0.713
same,glycan array binding signal (z-score),[20],-0.358
same,glycan array binding signal (z-score),[21],0.138
same,glycan array binding signal (z-score),[22],0.158
same,glycan array binding signal (z-score),[23],0.327
same,glycan array binding signal (z-score),[24],-0.588
same,glycan array binding signal (z-score),[25],0.755
same,glycan array binding signal (z-score),[26],-0.121
same,glycan array binding signal (z-score),[27],-0.458
same,glycan array binding signal (z-score),[28],-1.17
same,glycan array binding signal (z-score),[29],-0.678
same,glycan array binding signal (z-score),[30],1.41
same,glycan array binding signal (z-score),[31],-0.75
same,glycan array binding signal (z-score),[32],0.351
same,glycan array binding signal (z-score),[33],-0.243
same,glycan array binding signal (z-score),[34],0.213
same,glycan array binding signal (z-score),[35],-0.801
same,glycan array binding signal (z-score),[36],-0.077
same,glycan array binding signal (z-score),[37],0.534
same,glycan array binding signal (z-score),[38],-0.147
same,glycan array binding signal (z-score),[39],-1.06
same,glycan array binding signal (z-score),[40],-0.452
same,glycan array binding signal (z-score),[41],-0.693
same,glycan array binding signal (z-score),[42],0.169
same,glycan array binding signal (z-score),[43],0.189
same,glycan array binding signal (z-score),[44],0.064
same,glycan array binding signal (z-score),[45],0.794

# A stretch from further up, as a working copy:
binder,measurement,setting,value
HFR-3 (Triticum aestivum) (protein) MKGLLLCALALAFAAVTTHAQLQSCPTRCGKQADGMECPNNLCCSKDGYCGLGVDYCSAGAGCQSGACYDNKICGAQANGTLCRNNHCCSSGGRCGYGREYCSNGCQGGPCWADLKCGHLDNGKLCPNNLCCSQYGYCGLGPEFCGTGCQNGACSTDKPCGNKANGAPCTNNYCCSQYGSCGLGKDYCGTGCQNGACN,glycan array binding signal (z-score),[40],-0.452
same,glycan array binding signal (z-score),[41],-0.693

# Reference: the supplement of paper PMC8728848
